The other results are listed elsewhere or left out. These are raw signals, not scaled to a control.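 In the initial screen, polymyxin B was used at a concentration that permeabilizes Salmonella's outer membrane but not its inner membrane. Maximum growth was set by DMSO wells with or without polymyxin B. Since plates varied, data were ranked per plate, and compounds giving the lowest OD600 advanced as hits.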
Tested on: Salmonella enterica serovar Typhimurium SL1344
Experiment: bacterial growth OD600 after 18 h with compound and polymyxin B; higher = more bacterial growth (less inhibition)
Details: 50 µM, Mueller-Hinton broth

| Compound | bacterial growth OD600 (polymyxin B 1 µg/mL) | bacterial growth OD600 (polymyxin B 0.75 µg/mL) |
| --- | --- | --- |
| Cc1nonc1CC(=O)N(C)CC1CCCN(CCc2ccc(Cl)cc2)C1 (stereo not given) | 0.832 |  |
| Cc1cccc2nc(CN(C)C(=O)C3CCC(=O)N(CCc4ccccc4)C3)[nH]c12 (stereo not given) | 0.827 |  |
| O=C(NCCc1ccccc1Cl)C1CCC(=O)N(Cc2ccc(Cl)cc2)C1 (stereo not given) | 0.657 |  |
| COc1ccc(-c2cnnc(NCC3CCCCO3)n2)cc1F (stereo not given) |  | 0.634 |
| O=C(Nc1ccc(Oc2ccccc2F)cc1)C1CCN(Cc2ccoc2)CC1 |  | 0.563 |
| CN(CC1(O)CCCN(CCc2ccccc2)C1=O)C1CCCCC1 (stereo not given) | 0.887 |  |
| C=CCO[C@H]1[C@H](NC(=O)COC)c2ccccc2C12CCN(Cc1ccccc1-c1ccco1)CC2 |  | 0.879 |
| O=C(NCCCc1ccncc1)C1CC12CCN(C(=O)c1csc(-c3cccs3)n1)CC2 (stereo not given) |  | 0.792 |
| CC(C)CN1CCN(C(=O)c2cn(C(c3ccccc3)c3ccccc3)nn2)[C@@H](C)C1=O | 0.346 |  |
| CC(C)c1nc(CNC(=O)c2ccc(OCC3(C)CCCNC3)nc2)no1 (stereo not given) |  | 0.988 |
| COc1ccc(C(=O)N2CCCC2)c(OC2CCN(C(C)COc3ccccc3)CC2)c1 (stereo not given) | 1.02 |  |
| O=C(c1cc2c(nc1Cl)CCC2)N1CCCC(Nc2ccc3c(c2)OCCO3)C1 (stereo not given) | 0.801 |  |
| COc1ccc(CNC(C)c2cnn(-c3ccccc3)c2C)cc1O (stereo not given) |  | 0.816 |
| O=C(c1ccc(N2CCOCC2)nc1)N1CCC(CCc2ccccc2)CC1 | 0.578 |  |
| O=C(Cc1cccc(Cl)c1)NC1CC(=O)N(Cc2ccc(F)cc2)C1 (stereo not given) | 0.7 |  |
| CC#CC(=O)N1CCCC(C(=O)Nc2ccc(-c3cccc(OC)c3)cc2)C1 (stereo not given) | 0.887 |  |
| CN1CCCCC1C(=O)N1CCC(C2(c3ccccn3)NC(=O)N(CCc3cccs3)C2=O)CC1 (stereo not given) |  | 0.768 |
| CCN(CC)CC(=O)NC1CCCc2nc(N(C)C)ncc21 (stereo not given) | 1.1 |  |
| CN1CCCC(CN(CCc2ccccc2)C(=O)CCN2CCCCC2=O)C1 (stereo not given) | 1 |  |
| COc1ccccc1NC(=O)Nc1ccnn1C1CCN(C(=O)Cc2ccncc2)CC1 |  | 0.826 |

As entered above.
bacterial growth OD600 (polymyxin B 0.75 µg/mL) with `COc1ccccc1NC(=O)Nc1ccnn1C1CCN(C(=O)Cc2ccncc2)CC1` is entered as 0.826
bacterial growth OD600 (polymyxin B 1 µg/mL) with `CC#CC(=O)N1CCCC(C(=O)Nc2ccc(-c3cccc(OC)c3)cc2)C1` (stereo not given) is entered as 0.887

Source: the supplement of paper PMC12889115
